Experimental findings from the supplement of paper PMC8326762, “A Small Molecule Inhibitor of Pex3–Pex19 Interaction Disrupts Glycosome Biogenesis and Causes Lethality in Trypanosoma brucei” (Frontiers in Cell and Developmental Biology, 2021) are described below.

Counter-ions that a name gives are not always drawn. This is one part of the list. This is a noisy data set.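 Optical density at 600 nm measured yeast growth. Because the two-hybrid strains grew without histidine, growth required Pex3–Pex19 binding. Trypanosome selectivity meant a compound inhibited the trypanosome-pair strain's growth by more than 65% but the human-pair strain's by less than 65%.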

The subject of one test is Saccharomyces cerevisiae HF7c pdr5Δ. The test is described as follows: general growth inhibition of yeast HF7c pdr5Δ in -Leu -Trp medium, relative to DMSO; higher = stronger general growth inhibition. The note with it: 100 µM; 24 h.
The compound `O=C(O)C1=CCNCC1` [Isoguvacine hydrochloride] came in with a general growth inhibition of 24%.
`COc1ccc(S(=O)(=O)Nc2nc(-c3cccc([N+](=O)[O-])c3)cs2)cc1OC` came in with a general growth inhibition of 39.1%.
On the same count and under the same terms, to `CC1CNCCN1S(=O)(=O)c1cccc2cnccc12` (stereo unspecified) belongs 49.6%.
Same read-out and setting: in the case of `CC(N)(Cc1ccc(O)cc1)C(=O)O` (racemic) [DL-alpha-Methyl-p-tyrosine] it was 11.2%; in that of `Clc1ccccc1C(c1ccccc1)(c1ccccc1)n1ccnc1` [Clotrimazole], 72.4%; in that of `CN(c1ccccc1CNc1nc(Nc2ccc3c(c2)CC(=O)N3)ncc1C(F)(F)F)S(C)(=O)=O`, 29.9%.
Same read-out and setting: in the case of `N=C(N)SCCN` [2-(2-Aminoethyl)isothiourea dihydrobromide] it was 34.9%; in that of `N[C@@H](CS(=O)O)C(=O)O` [L-Cysteinesulfinic Acid], 46.3%.
On to `Cc1cc(C(C)(C)C)c(O)c(C)c1CC1=NCCN1` [Oxymetazoline hydrochloride], for which the general growth inhibition is 49.7%.
`NS(=O)(=O)C#Cc1ccccc1` [Pifithrin-mu] displayed a general growth inhibition of 63.1%.
As for `CC(O)C(O)[C@H]1CNc2nc(N)[nH]c(=O)c2N1` (stereo partly drawn) [(6R)-5,6,7,8-Tetrahydro-L-biopterin hydrochloride], the general growth inhibition came to 53.9%.
In turn, `NS(=O)(=O)c1cc2c(cc1Cl)NC(C1CC3C=CC1C3)NS2(=O)=O` (stereo unspecified) [Cyclothiazide] registered a general growth inhibition of 6.54%.
Turning to `CN1CCN(CCCN2c3ccccc3Sc3ccc(C(F)(F)F)cc32)CC1` [Trifluoperazine dihydrochloride], the general growth inhibition worked out at 40.2%.
Still for that read-out and setting: in the case of `COc1ccccc1N1CCN(CCN2C(=O)CC3(CCCC3)CC2=O)CC1` [BMY 7378 dihydrochloride] it was 32.7%; in that of `O=C(c1ccc2c(c1)OCCO2)N1CCCCC1`, 25.6%; in that of `CC(=O)c1ccc2c(c1)N(CCCN(C)C)c1ccccc1S2` [Acepromazine maleate], 44.4%.
On the same count and under the same terms, to `COC(=O)Nc1nc2cc(C(=O)c3cccs3)ccc2[nH]1` [Nocodazole] belongs 47.9%; to `CCCNCC(O)COc1ccccc1C(=O)CCc1ccccc1` (stereo unspecified) [Propafenone hydrochloride], 39%.
Compound `CCOc1ncc(S(=O)(=O)N2CCN(CC)CC2)cc1-c1nc(=O)c2nn(CCOC)c(CC)c2[nH]1` [Gisadenafil besylate salt] gave a general growth inhibition of 8.13%.
Still for that read-out and setting: in the case of `CC(N/C(=N\C#N)Nc1ccncc1)C(C)(C)C` (stereo unspecified) [Pinacidil] it was 44.1%.
The same measure, in the same setting: in the case of `COc1cc2c(cc1O)CC[C@@H]1[C@@H]2CC[C@]2(C)[C@@H](O)CC[C@@H]12` [2-methoxyestradiol] it was 38%; in that of `CC(C)NCC(O)c1cc(O)cc(O)c1` (stereo unspecified) [Metaproterenol hemisulfate], 46.7%; in that of `CN(C)CCOC(=O)COc1ccc(Cl)cc1` [Centrophenoxine hydrochloride], 50.6%.
Same read-out and setting: to `O=c1oc(Cl)c(Cl)c2ccccc12` [3,4-Dichloroisocoumarin] belongs 87.1%.
The compound `CC(C)(C)NC[C@H](O)COc1nsnc1N1CCOCC1` [S(-)-Timolol maleate] had a general growth inhibition of 57.3%.
The same measure, in the same setting: in the case of `O=C(c1ccc(OCCN2CCCCC2)cc1)c1c(-c2ccc(O)cc2)sc2cc(O)ccc12` [Raloxifene hydrochloride] it was 33.6%; in that of `Cc1cccc(C#Cc2ccccc2)n1` [6-Methyl-2-(phenylethynyl)pyridine hydrochloride], 48.9%.
On the same count and under the same terms, in the case of `CN1CC(=O)N=C1NC(=O)Nc1cccc(Cl)c1` [Fenobam] it was 37.8%; in that of `NCCCS(=O)(=O)O` [3-Amino-1-propanesulfonic acid sodium], 35%.
For the compound `N[C@H](C(=O)O)[C@H](Cc1ccccc1)C(=O)O` [L-Beta-threo-benzyl-aspartate], the general growth inhibition was 45.8%.
In turn, `COc1cccc2c1[C@@H]1CN(CCCCn3c(=O)[nH]c4c(sc5ncc(-c6ccccc6)nc54)c3=O)C[C@@H]1CO2` [Fiduxosin hydrochloride] registered a general growth inhibition of 84.4%.
On the same count and under the same terms, in the case of `O=C1Cc2cc(CCN3CCN(c4nsc5ccccc45)CC3)c(Cl)cc2N1` [Ziprasidone hydrochloride monohydrate] it was 46%.
On the same count and under the same terms, to `O=C(c1ccc(OCCCc2c[nH]cn2)cc1)C1CC1` [Ciproxifan hydrochloride] belongs 35.4%; to `c1ccc(CN2CCC3(CCCc4ccccc43)CC2)cc1` [L-687,384 hydrochloride], 29%; to `COc1cccc(-c2cc(=O)c3ccccc3o2)c1N`, 57%.
Take `COc1ccc2c(c1)CC[C@@H]1[C@@H]2CC[C@]2(C)[C@@H](NCCCCCCN3C(=O)CCC3=O)CC[C@@H]12`: the general growth inhibition is 18.1%.
For `Nc1nc(Cl)nc2c1ncn2[C@@H]1O[C@H](CO)[C@@H](O)[C@H]1O` [2-Chloroadenosine], the general growth inhibition was 39.2%.
With `OC[C@H]1O[C@@H](n2cnc3c(NC4CCCC4)ncnc32)[C@H](O)[C@@H]1O` [N6-Cyclopentyladenosine], the general growth inhibition is 34.9%.

A further test relates to human PEX3-PEX19 interaction (yeast two-hybrid). The test is described as follows: growth inhibition of yeast two-hybrid strain reporting HsPex3-HsPex19 interaction, relative to DMSO; higher = stronger inhibition of human Pex3-Pex19 interaction / growth. The note with it: 100 µM; 24 h; 3-aminotriazole 10 mM.
`O=C(O)C1=CCNCC1` [Isoguvacine hydrochloride] showed a growth inhibition of 23.5%.
The compound `COc1ccc(S(=O)(=O)Nc2nc(-c3cccc([N+](=O)[O-])c3)cs2)cc1OC` came in with a growth inhibition of 27.1%.
Same read-out and setting: to `CC1CNCCN1S(=O)(=O)c1cccc2cnccc12` (stereo unspecified) belongs 48.1%; to `CC(N)(Cc1ccc(O)cc1)C(=O)O` (racemic) [DL-alpha-Methyl-p-tyrosine], 13.3%; to `Clc1ccccc1C(c1ccccc1)(c1ccccc1)n1ccnc1` [Clotrimazole], 60.5%.
Take `CN(c1ccccc1CNc1nc(Nc2ccc3c(c2)CC(=O)N3)ncc1C(F)(F)F)S(C)(=O)=O`: the growth inhibition is 25.9%.
Still for that read-out and setting: to `N=C(N)SCCN` [2-(2-Aminoethyl)isothiourea dihydrobromide] belongs 29.4%.
`N[C@@H](CS(=O)O)C(=O)O` [L-Cysteinesulfinic Acid] returned a growth inhibition of 40.3%.
Same read-out and setting: to `Cc1cc(C(C)(C)C)c(O)c(C)c1CC1=NCCN1` [Oxymetazoline hydrochloride] belongs 46.6%; to `NS(=O)(=O)C#Cc1ccccc1` [Pifithrin-mu], 49.8%.
Compound `CC(O)C(O)[C@H]1CNc2nc(N)[nH]c(=O)c2N1` (stereo partly drawn) [(6R)-5,6,7,8-Tetrahydro-L-biopterin hydrochloride] came in with a growth inhibition of 39.8%.
Same read-out and setting: to `NS(=O)(=O)c1cc2c(cc1Cl)NC(C1CC3C=CC1C3)NS2(=O)=O` (stereo unspecified) [Cyclothiazide] belongs 3.42%; to `CN1CCN(CCCN2c3ccccc3Sc3ccc(C(F)(F)F)cc32)CC1` [Trifluoperazine dihydrochloride], 38.2%.
Still for that read-out and setting: in the case of `COc1ccccc1N1CCN(CCN2C(=O)CC3(CCCC3)CC2=O)CC1` [BMY 7378 dihydrochloride] it was 47.1%; in that of `O=C(c1ccc2c(c1)OCCO2)N1CCCCC1`, 41.9%; in that of `CC(=O)c1ccc2c(c1)N(CCCN(C)C)c1ccccc1S2` [Acepromazine maleate], 44.9%.
The compound `COC(=O)Nc1nc2cc(C(=O)c3cccs3)ccc2[nH]1` [Nocodazole] came in with a growth inhibition of 39.1%.
With `CCCNCC(O)COc1ccccc1C(=O)CCc1ccccc1` (stereo unspecified) [Propafenone hydrochloride], the growth inhibition was 49.3%.
Take `CCOc1ncc(S(=O)(=O)N2CCN(CC)CC2)cc1-c1nc(=O)c2nn(CCOC)c(CC)c2[nH]1` [Gisadenafil besylate salt]: the growth inhibition stood at 5.8%.
`CC(N/C(=N\C#N)Nc1ccncc1)C(C)(C)C` (stereo unspecified) [Pinacidil]: the growth inhibition was found to be 44.2%.
For the compound `COc1cc2c(cc1O)CC[C@@H]1[C@@H]2CC[C@]2(C)[C@@H](O)CC[C@@H]12` [2-methoxyestradiol], the growth inhibition worked out at 44.5%.
Consider `CC(C)NCC(O)c1cc(O)cc(O)c1` (stereo unspecified) [Metaproterenol hemisulfate], for which the growth inhibition worked out at 41.6%.
Turning to `CN(C)CCOC(=O)COc1ccc(Cl)cc1` [Centrophenoxine hydrochloride], the growth inhibition was 40%.
`O=c1oc(Cl)c(Cl)c2ccccc12` [3,4-Dichloroisocoumarin]: the growth inhibition came to 88.2%.
The same measure, in the same setting: to `CC(C)(C)NC[C@H](O)COc1nsnc1N1CCOCC1` [S(-)-Timolol maleate] belongs 47.7%.
The same measure, in the same setting: in the case of `O=C(c1ccc(OCCN2CCCCC2)cc1)c1c(-c2ccc(O)cc2)sc2cc(O)ccc12` [Raloxifene hydrochloride] it was 24.8%.
The same measure, in the same setting: in the case of `Cc1cccc(C#Cc2ccccc2)n1` [6-Methyl-2-(phenylethynyl)pyridine hydrochloride] it was 40%; in that of `CN1CC(=O)N=C1NC(=O)Nc1cccc(Cl)c1` [Fenobam], 41.3%.
Compound `NCCCS(=O)(=O)O` [3-Amino-1-propanesulfonic acid sodium] displayed a growth inhibition of 42.6%.
Same read-out and setting: to `N[C@H](C(=O)O)[C@H](Cc1ccccc1)C(=O)O` [L-Beta-threo-benzyl-aspartate] belongs 42.5%.
`COc1cccc2c1[C@@H]1CN(CCCCn3c(=O)[nH]c4c(sc5ncc(-c6ccccc6)nc54)c3=O)C[C@@H]1CO2` [Fiduxosin hydrochloride] gave a growth inhibition of 79.8%.
Still for that read-out and setting: to `O=C1Cc2cc(CCN3CCN(c4nsc5ccccc45)CC3)c(Cl)cc2N1` [Ziprasidone hydrochloride monohydrate] belongs 39.2%; to `O=C(c1ccc(OCCCc2c[nH]cn2)cc1)C1CC1` [Ciproxifan hydrochloride], 39.5%.
In turn, `c1ccc(CN2CCC3(CCCc4ccccc43)CC2)cc1` [L-687,384 hydrochloride] returned a growth inhibition of 13.6%.
The same measure, in the same setting: to `COc1cccc(-c2cc(=O)c3ccccc3o2)c1N` belongs 38.6%.
Still for that read-out and setting: in the case of `COc1ccc2c(c1)CC[C@@H]1[C@@H]2CC[C@]2(C)[C@@H](NCCCCCCN3C(=O)CCC3=O)CC[C@@H]12` it was 28.9%; in that of `Nc1nc(Cl)nc2c1ncn2[C@@H]1O[C@H](CO)[C@@H](O)[C@H]1O` [2-Chloroadenosine], 42.9%.
On to `OC[C@H]1O[C@@H](n2cnc3c(NC4CCCC4)ncnc32)[C@H](O)[C@@H]1O` [N6-Cyclopentyladenosine], for which the growth inhibition was found to be 36.4%.
